The results in this text go back to article PMC6367972.

The chains behind the UniProt entries cited, without tags or fusion partners.
UniProt O14964: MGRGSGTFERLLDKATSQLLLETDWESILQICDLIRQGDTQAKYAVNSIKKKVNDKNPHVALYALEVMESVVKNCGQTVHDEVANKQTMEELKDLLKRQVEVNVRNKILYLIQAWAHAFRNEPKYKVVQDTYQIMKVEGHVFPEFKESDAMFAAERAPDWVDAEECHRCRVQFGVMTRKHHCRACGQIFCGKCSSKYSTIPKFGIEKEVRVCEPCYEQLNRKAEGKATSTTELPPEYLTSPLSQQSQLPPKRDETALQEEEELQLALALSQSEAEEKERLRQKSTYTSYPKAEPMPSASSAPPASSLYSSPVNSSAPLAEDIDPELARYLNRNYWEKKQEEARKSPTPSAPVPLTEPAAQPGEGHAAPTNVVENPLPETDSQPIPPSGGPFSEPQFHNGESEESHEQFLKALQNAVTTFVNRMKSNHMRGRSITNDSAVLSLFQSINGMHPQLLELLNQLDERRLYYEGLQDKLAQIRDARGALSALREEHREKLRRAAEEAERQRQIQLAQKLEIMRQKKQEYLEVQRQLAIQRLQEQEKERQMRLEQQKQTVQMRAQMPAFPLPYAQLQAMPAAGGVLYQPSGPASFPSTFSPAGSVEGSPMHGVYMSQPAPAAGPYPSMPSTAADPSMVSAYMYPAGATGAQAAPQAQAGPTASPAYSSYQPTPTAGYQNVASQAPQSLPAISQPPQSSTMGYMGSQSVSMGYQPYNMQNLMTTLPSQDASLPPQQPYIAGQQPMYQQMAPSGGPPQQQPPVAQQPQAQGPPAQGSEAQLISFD
UniProt O43707: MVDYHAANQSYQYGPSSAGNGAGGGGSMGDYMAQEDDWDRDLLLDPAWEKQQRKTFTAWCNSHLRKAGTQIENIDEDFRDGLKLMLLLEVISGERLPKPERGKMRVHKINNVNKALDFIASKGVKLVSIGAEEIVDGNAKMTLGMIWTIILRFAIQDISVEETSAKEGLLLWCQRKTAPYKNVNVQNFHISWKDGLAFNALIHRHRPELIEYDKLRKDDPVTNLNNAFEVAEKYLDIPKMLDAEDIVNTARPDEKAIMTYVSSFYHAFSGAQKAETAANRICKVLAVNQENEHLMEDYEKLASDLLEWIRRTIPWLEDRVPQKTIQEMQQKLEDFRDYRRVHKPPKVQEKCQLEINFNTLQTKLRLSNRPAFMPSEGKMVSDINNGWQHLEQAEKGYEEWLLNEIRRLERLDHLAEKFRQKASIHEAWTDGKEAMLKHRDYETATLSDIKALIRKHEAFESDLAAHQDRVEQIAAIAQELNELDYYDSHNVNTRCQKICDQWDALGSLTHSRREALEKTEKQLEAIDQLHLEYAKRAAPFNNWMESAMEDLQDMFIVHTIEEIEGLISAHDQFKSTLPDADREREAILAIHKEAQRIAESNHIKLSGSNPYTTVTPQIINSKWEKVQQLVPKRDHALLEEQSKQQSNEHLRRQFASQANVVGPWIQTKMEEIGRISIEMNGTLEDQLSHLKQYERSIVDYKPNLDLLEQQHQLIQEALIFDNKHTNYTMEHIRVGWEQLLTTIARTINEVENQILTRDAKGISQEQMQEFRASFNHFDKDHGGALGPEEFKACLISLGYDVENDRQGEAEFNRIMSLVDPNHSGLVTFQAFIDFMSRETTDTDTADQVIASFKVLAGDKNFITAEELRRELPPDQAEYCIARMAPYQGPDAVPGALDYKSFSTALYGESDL

Results are given in words; binding and its absence hold for the method and conditions named. Binding seen in cells or lysates may run through a third protein. Some entries that bind do so weakly or less than the wild type.

Assay [1] addresses T1, CLEC16A (stably overexpressed in YTS-CLEC16A NK cells) (human) (UniProt Q2KHT3).
T1 sequence: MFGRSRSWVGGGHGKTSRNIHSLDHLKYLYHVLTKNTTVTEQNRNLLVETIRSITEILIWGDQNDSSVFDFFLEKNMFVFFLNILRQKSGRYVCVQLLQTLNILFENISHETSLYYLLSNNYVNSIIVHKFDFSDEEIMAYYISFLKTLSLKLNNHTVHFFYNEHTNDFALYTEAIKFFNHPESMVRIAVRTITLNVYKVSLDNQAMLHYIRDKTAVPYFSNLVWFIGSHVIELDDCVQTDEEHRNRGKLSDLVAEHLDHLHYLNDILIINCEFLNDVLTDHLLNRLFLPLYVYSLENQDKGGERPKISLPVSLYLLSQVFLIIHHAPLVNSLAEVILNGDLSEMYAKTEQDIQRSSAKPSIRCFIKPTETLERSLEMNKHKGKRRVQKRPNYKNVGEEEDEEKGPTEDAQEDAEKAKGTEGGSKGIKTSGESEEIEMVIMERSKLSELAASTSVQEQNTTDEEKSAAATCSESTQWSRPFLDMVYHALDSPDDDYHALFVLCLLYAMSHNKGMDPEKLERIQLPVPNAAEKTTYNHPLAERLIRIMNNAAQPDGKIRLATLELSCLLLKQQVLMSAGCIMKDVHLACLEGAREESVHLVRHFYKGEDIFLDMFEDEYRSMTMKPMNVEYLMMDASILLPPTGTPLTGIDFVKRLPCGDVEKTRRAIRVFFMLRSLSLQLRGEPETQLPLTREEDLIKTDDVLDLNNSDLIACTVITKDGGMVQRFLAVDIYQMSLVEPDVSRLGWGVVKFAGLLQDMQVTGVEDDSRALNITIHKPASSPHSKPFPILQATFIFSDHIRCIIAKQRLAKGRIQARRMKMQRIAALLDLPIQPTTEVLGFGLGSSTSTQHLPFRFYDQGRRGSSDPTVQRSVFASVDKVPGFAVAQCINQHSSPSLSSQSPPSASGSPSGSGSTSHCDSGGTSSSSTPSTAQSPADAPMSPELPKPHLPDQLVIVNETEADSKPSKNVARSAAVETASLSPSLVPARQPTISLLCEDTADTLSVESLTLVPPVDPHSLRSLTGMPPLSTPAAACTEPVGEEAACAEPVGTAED
In words: co-IP; lysates of YTS and YTS-CLEC16A cells (IP-lysis buffer), pre-cleared, precipitated with CLEC16A antibody (IgG as control) and agarose G beads at 4°C; immunoblot of the partners.

For assay [2], the target named is T2, CLEC16A (endogenous, parental YTS NK cells) (human (endogenous in YTS)) (UniProt Q2KHT3).
T2 sequence: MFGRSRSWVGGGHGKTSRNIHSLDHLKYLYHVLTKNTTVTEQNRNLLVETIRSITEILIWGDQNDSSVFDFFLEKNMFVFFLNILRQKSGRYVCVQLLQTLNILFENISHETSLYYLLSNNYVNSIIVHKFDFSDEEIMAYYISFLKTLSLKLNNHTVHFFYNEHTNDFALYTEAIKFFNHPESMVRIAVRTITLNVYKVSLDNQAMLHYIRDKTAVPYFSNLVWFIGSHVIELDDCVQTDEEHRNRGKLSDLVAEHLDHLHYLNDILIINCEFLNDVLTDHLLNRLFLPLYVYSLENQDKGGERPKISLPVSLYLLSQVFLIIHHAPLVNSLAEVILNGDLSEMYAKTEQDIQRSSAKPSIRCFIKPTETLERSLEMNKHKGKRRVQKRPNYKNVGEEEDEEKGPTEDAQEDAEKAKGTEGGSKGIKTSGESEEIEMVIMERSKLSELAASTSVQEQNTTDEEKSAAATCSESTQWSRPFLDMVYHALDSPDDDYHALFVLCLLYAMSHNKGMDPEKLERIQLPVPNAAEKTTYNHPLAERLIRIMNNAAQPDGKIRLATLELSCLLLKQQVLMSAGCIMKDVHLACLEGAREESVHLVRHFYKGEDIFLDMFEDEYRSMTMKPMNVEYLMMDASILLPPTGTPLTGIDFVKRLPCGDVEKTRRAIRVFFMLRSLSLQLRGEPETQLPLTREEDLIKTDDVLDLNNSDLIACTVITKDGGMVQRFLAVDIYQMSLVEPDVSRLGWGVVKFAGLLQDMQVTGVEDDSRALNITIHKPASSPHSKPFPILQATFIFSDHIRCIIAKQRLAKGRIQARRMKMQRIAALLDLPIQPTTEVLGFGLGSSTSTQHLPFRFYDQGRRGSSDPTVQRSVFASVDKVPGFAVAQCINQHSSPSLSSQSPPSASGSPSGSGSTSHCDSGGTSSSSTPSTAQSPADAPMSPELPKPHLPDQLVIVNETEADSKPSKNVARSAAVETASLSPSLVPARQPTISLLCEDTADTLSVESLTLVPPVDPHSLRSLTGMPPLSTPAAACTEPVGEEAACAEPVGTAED
The description is as above.

In assay [3] the target is T3, Vps16A, a subunit of the class C Vps-HOPS complex (human (endogenous in YTS)) (UniProt Q9H269).
T3 sequence: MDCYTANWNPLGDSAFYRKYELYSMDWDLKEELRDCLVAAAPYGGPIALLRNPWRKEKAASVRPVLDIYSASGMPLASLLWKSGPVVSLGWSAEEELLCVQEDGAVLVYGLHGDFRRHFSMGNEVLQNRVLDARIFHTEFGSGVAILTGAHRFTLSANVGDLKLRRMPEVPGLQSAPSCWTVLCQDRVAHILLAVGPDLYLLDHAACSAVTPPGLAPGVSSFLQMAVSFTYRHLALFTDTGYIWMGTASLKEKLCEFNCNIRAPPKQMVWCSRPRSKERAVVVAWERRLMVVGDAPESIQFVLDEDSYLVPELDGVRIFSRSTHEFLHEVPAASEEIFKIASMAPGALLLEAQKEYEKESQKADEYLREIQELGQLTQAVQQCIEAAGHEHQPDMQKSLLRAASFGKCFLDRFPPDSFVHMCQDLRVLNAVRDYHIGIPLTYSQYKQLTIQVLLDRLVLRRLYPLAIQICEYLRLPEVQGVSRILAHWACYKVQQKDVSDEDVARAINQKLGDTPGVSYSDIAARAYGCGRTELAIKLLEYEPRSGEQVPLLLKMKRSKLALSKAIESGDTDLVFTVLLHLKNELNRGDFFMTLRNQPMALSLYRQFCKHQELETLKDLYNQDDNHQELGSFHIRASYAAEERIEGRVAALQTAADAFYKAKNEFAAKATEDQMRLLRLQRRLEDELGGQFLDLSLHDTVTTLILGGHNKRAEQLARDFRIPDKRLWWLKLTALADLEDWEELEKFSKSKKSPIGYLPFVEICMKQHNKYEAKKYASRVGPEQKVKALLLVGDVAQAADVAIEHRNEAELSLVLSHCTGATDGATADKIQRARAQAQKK
In words: co-IP; reverse co-IP: lysates of YTS and YTS-CLEC16A cells precipitated with Vps-16A, Hrs or CD226 antibody and agarose G beads at 4°C; immunoblot for CLEC16A.

Assay [4] concerns the target ESCRT protein-Hrs (human (endogenous in YTS)) (UniProt O14964). The description is as above.

As to “ESCRT protein-Hrs (from UniProt O14964 1-777)”, the binding result in assay [1] and in assay [2] was “binds” in each case.

As for Actinin-4 (from UniProt O43707 1-911), the binding result in assay [2] is listed as “binds”.

B1: Vps16A, a subunit of the class C Vps-HOPS complex (protein, UniProt Q9H269 1-839)
chain: MDCYTANWNPLGDSAFYRKYELYSMDWDLKEELRDCLVAAAPYGGPIALLRNPWRKEKAASVRPVLDIYSASGMPLASLLWKSGPVVSLGWSAEEELLCVQEDGAVLVYGLHGDFRRHFSMGNEVLQNRVLDARIFHTEFGSGVAILTGAHRFTLSANVGDLKLRRMPEVPGLQSAPSCWTVLCQDRVAHILLAVGPDLYLLDHAACSAVTPPGLAPGVSSFLQMAVSFTYRHLALFTDTGYIWMGTASLKEKLCEFNCNIRAPPKQMVWCSRPRSKERAVVVAWERRLMVVGDAPESIQFVLDEDSYLVPELDGVRIFSRSTHEFLHEVPAASEEIFKIASMAPGALLLEAQKEYEKESQKADEYLREIQELGQLTQAVQQCIEAAGHEHQPDMQKSLLRAASFGKCFLDRFPPDSFVHMCQDLRVLNAVRDYHIGIPLTYSQYKQLTIQVLLDRLVLRRLYPLAIQICEYLRLPEVQGVSRILAHWACYKVQQKDVSDEDVARAINQKLGDTPGVSYSDIAARAYGCGRTELAIKLLEYEPRSGEQVPLLLKMKRSKLALSKAIESGDTDLVFTVLLHLKNELNRGDFFMTLRNQPMALSLYRQFCKHQELETLKDLYNQDDNHQELGSFHIRASYAAEERIEGRVAALQTAADAFYKAKNEFAAKATEDQMRLLRLQRRLEDELGGQFLDLSLHDTVTTLILGGHNKRAEQLARDFRIPDKRLWWLKLTALADLEDWEELEKFSKSKKSPIGYLPFVEICMKQHNKYEAKKYASRVGPEQKVKALLLVGDVAQAADVAIEHRNEAELSLVLSHCTGATDGATADKIQRARAQAQKK
For the molecule B1, the binding result in assay [1] and in assay [2] was “binds” throughout.

B2: CLEC16A (endogenous, parental YTS NK cells) (protein, UniProt Q2KHT3 1-1053)
chain: MFGRSRSWVGGGHGKTSRNIHSLDHLKYLYHVLTKNTTVTEQNRNLLVETIRSITEILIWGDQNDSSVFDFFLEKNMFVFFLNILRQKSGRYVCVQLLQTLNILFENISHETSLYYLLSNNYVNSIIVHKFDFSDEEIMAYYISFLKTLSLKLNNHTVHFFYNEHTNDFALYTEAIKFFNHPESMVRIAVRTITLNVYKVSLDNQAMLHYIRDKTAVPYFSNLVWFIGSHVIELDDCVQTDEEHRNRGKLSDLVAEHLDHLHYLNDILIINCEFLNDVLTDHLLNRLFLPLYVYSLENQDKGGERPKISLPVSLYLLSQVFLIIHHAPLVNSLAEVILNGDLSEMYAKTEQDIQRSSAKPSIRCFIKPTETLERSLEMNKHKGKRRVQKRPNYKNVGEEEDEEKGPTEDAQEDAEKAKGTEGGSKGIKTSGESEEIEMVIMERSKLSELAASTSVQEQNTTDEEKSAAATCSESTQWSRPFLDMVYHALDSPDDDYHALFVLCLLYAMSHNKGMDPEKLERIQLPVPNAAEKTTYNHPLAERLIRIMNNAAQPDGKIRLATLELSCLLLKQQVLMSAGCIMKDVHLACLEGAREESVHLVRHFYKGEDIFLDMFEDEYRSMTMKPMNVEYLMMDASILLPPTGTPLTGIDFVKRLPCGDVEKTRRAIRVFFMLRSLSLQLRGEPETQLPLTREEDLIKTDDVLDLNNSDLIACTVITKDGGMVQRFLAVDIYQMSLVEPDVSRLGWGVVKFAGLLQDMQVTGVEDDSRALNITIHKPASSPHSKPFPILQATFIFSDHIRCIIAKQRLAKGRIQARRMKMQRIAALLDLPIQPTTEVLGFGLGSSTSTQHLPFRFYDQGRRGSSDPTVQRSVFASVDKVPGFAVAQCINQHSSPSLSSQSPPSASGSPSGSGSTSHCDSGGTSSSSTPSTAQSPADAPMSPELPKPHLPDQLVIVNETEADSKPSKNVARSAAVETASLSPSLVPARQPTISLLCEDTADTLSVESLTLVPPVDPHSLRSLTGMPPLSTPAAACTEPVGEEAACAEPVGTAED
B2: the binding entry in assay [3] and in assay [4] was “binds” each time.

B3: CLEC16A (stably overexpressed in YTS-CLEC16A NK cells) (protein, UniProt Q2KHT3 1-1053)
chain: MFGRSRSWVGGGHGKTSRNIHSLDHLKYLYHVLTKNTTVTEQNRNLLVETIRSITEILIWGDQNDSSVFDFFLEKNMFVFFLNILRQKSGRYVCVQLLQTLNILFENISHETSLYYLLSNNYVNSIIVHKFDFSDEEIMAYYISFLKTLSLKLNNHTVHFFYNEHTNDFALYTEAIKFFNHPESMVRIAVRTITLNVYKVSLDNQAMLHYIRDKTAVPYFSNLVWFIGSHVIELDDCVQTDEEHRNRGKLSDLVAEHLDHLHYLNDILIINCEFLNDVLTDHLLNRLFLPLYVYSLENQDKGGERPKISLPVSLYLLSQVFLIIHHAPLVNSLAEVILNGDLSEMYAKTEQDIQRSSAKPSIRCFIKPTETLERSLEMNKHKGKRRVQKRPNYKNVGEEEDEEKGPTEDAQEDAEKAKGTEGGSKGIKTSGESEEIEMVIMERSKLSELAASTSVQEQNTTDEEKSAAATCSESTQWSRPFLDMVYHALDSPDDDYHALFVLCLLYAMSHNKGMDPEKLERIQLPVPNAAEKTTYNHPLAERLIRIMNNAAQPDGKIRLATLELSCLLLKQQVLMSAGCIMKDVHLACLEGAREESVHLVRHFYKGEDIFLDMFEDEYRSMTMKPMNVEYLMMDASILLPPTGTPLTGIDFVKRLPCGDVEKTRRAIRVFFMLRSLSLQLRGEPETQLPLTREEDLIKTDDVLDLNNSDLIACTVITKDGGMVQRFLAVDIYQMSLVEPDVSRLGWGVVKFAGLLQDMQVTGVEDDSRALNITIHKPASSPHSKPFPILQATFIFSDHIRCIIAKQRLAKGRIQARRMKMQRIAALLDLPIQPTTEVLGFGLGSSTSTQHLPFRFYDQGRRGSSDPTVQRSVFASVDKVPGFAVAQCINQHSSPSLSSQSPPSASGSPSGSGSTSHCDSGGTSSSSTPSTAQSPADAPMSPELPKPHLPDQLVIVNETEADSKPSKNVARSAAVETASLSPSLVPARQPTISLLCEDTADTLSVESLTLVPPVDPHSLRSLTGMPPLSTPAAACTEPVGEEAACAEPVGTAED
Turning to B3, the binding entry in assay [3] and in assay [4] was “binds” in each case.
